Data reported in the supplement of paper PMC10735217.
Counter-ions that a name gives are not always drawn. This is one part of the list. This data set is noisy: repeats of one test often differ as much as different tests do.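 The human kidney-derived cells carry a stably integrated construct of eight TEAD-binding elements driving luciferase, read by luminescence in a drug-repurposing library screen. A compound counts as a hit when its signal is more than five robust Z scores above the plate mean.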

System: HEK293A TEAD-LUC reporter
Experiment: TEAD-luciferase reporter activity (YAP activation), robust Z score vs plate; higher = stronger YAP/TEAD activation
Details: 24 h

Compound | TEAD-luciferase reporter activity (compound concentration: 200 nM) | TEAD-luciferase reporter activity (compound concentration: 2 uM) | TEAD-luciferase reporter activity (compound concentration: 10 uM)
COc1ccc2c3c1O[C@H]1C(=O)CC[C@H]4[C@@H](C2)N(C)CC[C@]314 [Hydrocodone bitartrate] | inactive: -0.738 | inactive: -1.28 | inactive: -0.337
CN1CC[C@@]23CCCC[C@@H]2[C@@H]1Cc1ccc(O)cc13 [Levorphanol tartrate] | – | inactive: 0.22 | –
CC(=O)O[C@H]1CC[C@@]2(C)C(=CC[C@H]3[C@@H]4CC[C@H](OC(=O)c5ccccc5)[C@@]4(C)CC[C@@H]32)C1 | inactive: 0.425 | inactive: 0.127 | inactive: 1.89
CN1Cc2ccccc2[C@H]2c3cccc4[nH]cc(c34)C[C@H]21 | inactive: 1.06 | inactive: -0.134 | inactive: -1.44
C[C@@H]1CC2=CC(=O)CC[C@@H]2[C@H]2CCC3(C)[C@@H](O)CC[C@H]3[C@@H]21 (stereo not given in full) | inactive: -1.71 | inactive: -0.713 | inactive: 0.376
COc1ccc2c(c1)/C(=C/c1c[nH]cn1)C(=O)N2 | inactive: -0.408 | inactive: 1.11 | inactive: 3.73
CCCC(C)C1(CC)C(=O)N=C([O-])NC1=O (stereo not given) [Pentobarbital sodium] | inactive: 0.0849 | inactive: -1.1 | inactive: -0.677
CCCNC(=O)c1ccc(N(C)[C@H](CN2CC[C@H](O)C2)c2ccccc2)cc1 | inactive: -1.31 | inactive: -0.463 | inactive: 1.53
CC(=O)[O][Hg][c]1cc(C(C)(C)CC(C)(C)C)ccc1O | inactive: 1.19 | inactive: -0.175 | active: 9.04
COc1ccc(CC(C)N)cc1 (stereo not given) | inactive: -1.75 | inactive: -0.805 | inactive: -0.867
COc1ccc(C(=O)c2c(C)n(CCN3CCOCC3)c3ccccc23)cc1 [pravadoline] | inactive: -0.822 | inactive: -0.941 | inactive: -0.467
CN1C(=O)[C@@H](NC(=O)c2cc3cccc4c3n2CCC4)N=C(c2ccccc2)c2ccccc21 [Tarazepide] | inactive: -1.41 | inactive: 0.622 | inactive: 4.43
CSCC[C@H](NC(=O)[C@H](Cc1ccccc1)NC(=O)CNC(=O)CNC(=O)[C@H](N)Cc1ccc(O)cc1)C(=O)O [Metenkefalin] | inactive: -0.407 | inactive: -0.788 | inactive: -0.598
C[C@H]1[C@@H](OCc2ccc(C(=O)O)cc2)O[C@@H]2O[C@@]3(C)CC[C@H]4[C@H](C)CC[C@@H]1[C@@]24OO3 [Artelinic acid] | inactive: 0.267 | inactive: -0.335 | inactive: -0.839
CC(=O)O[C@H]1C[C@@H]2CC[C@@H]3[C@H](CC[C@@]4(C)[C@H]3C[C@H]([N+]3(C)CCCCC3)[C@@H]4OC(C)=O)[C@@]2(C)C[C@@H]1[N+]1(C)CCCCC1 [Pancuronium bromide] | – | inactive: -0.798 | –
CC(=O)O[C@H]1C[C@@H]2CC[C@@H]3[C@H](CC[C@@]4(C)[C@H]3C[C@H]([N+]3(C)CCCCC3)[C@@H]4OC(C)=O)[C@@]2(C)C[C@@H]1[N+]1(C)CCCCC1 [Pancuronium Br] | inactive: 1.41 | – | inactive: -0.419
COc1ccc2c3c1O[C@H]1C(=O)CC[C@@]4(O)[C@@H](C2)N(C)CC[C@]314 [Oxycodone hydrochloride] | inactive: -2.02 | – | inactive: -0.504
CCC(=O)O[C@@H]1C=C2CC[C@@H]3[C@H](CCC4(C)[C@@H](OC(=O)CC)CC[C@@H]34)C2(C)CC1 (stereo not given in full) | inactive: -1.58 | inactive: 0.572 | inactive: 0.738
C[C@@]12C(=O)OC(=O)[C@]1(C)[C@@H]1CC[C@@H]2O1 [Cantharidin] | inactive: 0.52 | inactive: -1.66 | inactive: -1.29
c1ccc(C2(c3ccccc3)OCC(C3CCCCN3)O2)cc1 (stereo not given) | inactive: -1.26 | inactive: -0.211 | inactive: -0.448
FC(F)(F)c1cccc(C2=CCN(CCc3ccc4ccncc4c3)CC2)c1 | inactive: -1.42 | inactive: 0.113 | inactive: 1.37
COc1ccc(C(=O)Cc2c(CCN(C)C)cc3c(c2OC)OCO3)c(C(=O)O)c1OC | inactive: -0.0976 | inactive: -0.559 | inactive: -0.623
CCCCSc1ccc(C(SCCN(C)C)c2ccccc2)cc1 (stereo not given) | inactive: 0.41 | inactive: 0.0693 | inactive: -1.24
CC(C)c1cccc(C(C)C)c1OCCNCCO | inactive: -1.52 | inactive: -0.815 | inactive: -0.836
CCCCCCCCCC(=O)O[C@H]1CC[C@H]2[C@@H]3CCC4=CC(=O)CC[C@@H]4[C@H]3CCC12C (stereo not given in full) [Nandrolone decanoate] | inactive: -0.67 | inactive: -0.00146 | inactive: -1.43
C[C@@H]1[C@H](O)[C@@H](C)/C=C/C=C/CC/C=C/C=C/C=C/C=C/[C@H](O[C@@H]2O[C@H](C)[C@@H](O)[C@H](N)[C@@H]2O)C[C@@H]2O[C@](O)(C[C@@H](O)[C@H](O)CC[C@@H](O)C[C@@H](O)C[C@@H](O)CC(=O)O[C@H]1C)C[C@H](O)[C@H]2C(=O)O [Nystatin] | inactive: -1.25 | inactive: 0.263 | inactive: 2.61
O=P1(NCCBr)OCCCN1CCCl (stereo not given) [bromofosfamide] | inactive: -0.307 | inactive: 0.742 | inactive: 0.354

Retrieved one by one from the list above:
Compound | TEAD-luciferase reporter activity (compound concentration: 200 nM) | TEAD-luciferase reporter activity (compound concentration: 2 uM) | TEAD-luciferase reporter activity (compound concentration: 10 uM)
C[C@H]1[C@@H](OCc2ccc(C(=O)O)cc2)O[C@@H]2O[C@@]3(C)CC[C@H]4[C@H](C)CC[C@@H]1[C@@]24OO3 [Artelinic acid] | inactive: 0.267 | inactive: -0.335 | inactive: -0.839
COc1ccc(CC(C)N)cc1 (stereo not given) | inactive: -1.75 | inactive: -0.805 | inactive: -0.867
CN1Cc2ccccc2[C@H]2c3cccc4[nH]cc(c34)C[C@H]21 | inactive: 1.06 | inactive: -0.134 | inactive: -1.44

Carrying on.

Compound | TEAD-luciferase reporter activity (compound concentration: 200 nM) | TEAD-luciferase reporter activity (compound concentration: 2 uM) | TEAD-luciferase reporter activity (compound concentration: 10 uM)
CN1CCc2cccc(Cl)c2CC1 | inactive: -1.02 | inactive: -0.528 | inactive: 1.42
CCOc1ccc2nccc([C@@H](O)[C@@H]3CC4CCN3C[C@@H]4CC)c2c1 (stereo not given in full) | inactive: 1.06 | inactive: -0.795 | inactive: -1.1
CC(C)N(CCNC(=O)CN1CCCC1=O)C(C)C [pramiracetam] | inactive: -1.12 | inactive: -1.57 | inactive: -1.54
C[N+]1(CC(=O)c2ccc(-c3ccccc3)cc2)C2CCC1CC(OC(=O)[C@H](CO)c1ccccc1)C2 (stereo not given in full) | inactive: 0.258 | inactive: -1.47 | inactive: -0.104
CN1C(=O)COc2c(C(=O)NC3CN4CCC3CC4)cc(Cl)cc21 (stereo not given) [Azasetron hydrochloride] | – | inactive: -1.16 | –
CN1C(=O)COc2c(C(=O)NC3CN4CCC3CC4)cc(Cl)cc21 (stereo not given) [Azasetronn/a] | inactive: -0.953 | – | inactive: 1.25
O=C1Nc2ccccc2C12CCN(CC1CC1)CC2 | inactive: -3.26 | – | inactive: 0.681
O=P1(N(CCCl)CCCl)NCCCO1 (stereo not given) [Cytoxan6055-19-2] | inactive: -0.0544 | – | inactive: 0.943
O=P1(N(CCCl)CCCl)NCCCO1 (stereo not given) [Cyclophosphamide monohydrate] | – | inactive: 0.104 | –
O=P1(N(CCCl)CCCl)NCCCO1 (stereo not given) [Cyclophosphamide] | – | inactive: -1.68 | –
C#Cc1cncc([C@@H]2CCCN2C)c1 [Altinicline maleate] | inactive: 0.278 | inactive: 1.19 | inactive: 1.44
O=C(NC(=O)c1c(F)cccc1F)Nc1cc(Cl)c(OC(F)(F)C(F)C(F)(F)F)cc1Cl (stereo not given) [Lufenuron] | inactive: 1.81 | inactive: -1.14 | inactive: 3.39
CCN1CCCCC12Cc1ccccc1CN(C(=O)Cc1ccccc1)C2 (stereo not given) | inactive: -1.23 | – | inactive: -0.761
CCOC(=O)C1(c2cccc(O)c2)CCN(C)CC1 [Hydroxypethidine] | inactive: 1.14 | inactive: 0.586 | inactive: 0.0129
c1cc2c(c(NC3=NCCN3)c1)CCCC2 | inactive: -0.603 | inactive: -2.32 | inactive: 1.26
C[C@@]12CCCCC[C@@H](Cc3ccc(O)cc31)[C@@H]2N [dezocine] | inactive: -0.868 | inactive: -0.608 | inactive: 0.801
COc1ccc2c(c1)C1CCCNC1CO2 (stereo not given) | inactive: 0.268 | inactive: -0.599 | inactive: -0.475
C/C=C/C1(C(C)C#CCC)C(=O)N=C([O-])N(C)C1=O (stereo not given) [Methohexital] | inactive: -1.1 | inactive: -0.595 | inactive: -0.338
CCCC(C(=O)c1ccc(C)cc1)N1CCCC1 (stereo not given) [Pyrovalerone HCl] | inactive: -0.0254 | – | inactive: -0.963
C=CC(C)NC(=S)NNC(=S)NC (stereo not given) [Metallibure] | inactive: -0.162 | inactive: -0.49 | inactive: -2.16
CCCCNCC(O)c1ccc(O)cc1 (stereo not given) | inactive: -1.06 | inactive: -0.559 | inactive: -0.329
O=C(O)c1nn(Cc2ccc(Cl)cc2Cl)c2ccccc12 [lonidamine] | inactive: -1.22 | inactive: -0.46 | inactive: -0.477
Cc1nc2ccccn2c(=O)c1CCN1CCC(Nc2nc3cccnc3n2Cc2ccco2)CC1 | inactive: -0.951 | inactive: -0.264 | inactive: 1.54
CCCCCCCCCC(=O)O[C@H]1CC[C@H]2[C@@H]3CCC4=CC(=O)CC[C@]4(C)[C@H]3CC[C@]12C | inactive: -1.4 | inactive: 4.84 | inactive: -0.36
Cc1cc(N(C)C)ccc1CC(C)N (stereo not given) [amiflamine] | inactive: -1.63 | inactive: -1.66 | inactive: -1.28
Cc1nnc2n1-c1sc(CCc3ccc(CC(C)C)cc3)cc1C(c1ccccc1Cl)=NC2C (stereo not given) [Israpafant] | active: 6.56 | inactive: -0.362 | inactive: -0.697
CC1(C)C(=O)N(c2ccc(C#N)c(C(F)(F)F)c2)C(=O)N1CCCCO | inactive: -1.08 | inactive: -0.992 | inactive: -1.38
